# Values quoted from earlier work as cited in US20260226114A1, “PEPTIDE FOR THE TREATMENT OF DISEASES ASSOCIATED WITH APOLIPOPROTEIN AI OR TRANSTHYRETIN INVOLVEMENT” (CENTRO DE INGENIERÍA GENÉTICA Y BIOTECNOLOGÍA, priority 2022, published 2026).
# Part of at least one peptide drawing is inferred or uncertain, most often the ends. No end group written: not given here.
# Experiments:
# [1] = test system: patients with RA; settings: cited from earlier work
# [2] = test system: patients with COVID-19; settings: cited from earlier work
sequence,measurement,setting,value
SIDLKDKYKNIGAKLVQLVANNTNEEA [SEQ ID NO: 1],therapeutic effect,[1],good therapeutic effect
same,inflammation,[2],reduce inflammation
